Source: PubChem BioAssay AID1347170 (National Center for Advancing Translational Sciences (NCATS), 2019)
This list was built around the results that the source calls inconclusive (neither active nor inactive); the mix of calls is not that of the screen. A potency beside an inconclusive call is a rough fit, not a confirmed value. The source made the active and inactive calls. Calls follow the shape of the dose curve; as a rule, active = well fitted cell-killing curve with a large enough effect; inconclusive = small, poorly fitted or top-dose-only effect, or another doubt; inactive = flat fitted curve, though single readings scatter.

Assay: Vero cells viability counterscreen for qRT-PCR qHTS assay of selected Zika virus inhibitors
Details: CellTiter-Glo ATP luminescence, 24 h; activity change, negative = cytotoxicity: at 41.8 µM (top of the series) unless noted
Summary of the method: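 ATP-based CellTiter-Glo luminescence reported Vero cell viability. Cells in 4% FBS DMEM, plated overnight, were exposed to compounds for 24 h.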

Row | SMILES | Potency | activity change, negative = cytotoxicity
1 | N#CC(c1ccc(Cl)cc1)c1c(Cl)cc(-n2ncc(=O)[nH]c2=O)cc1Cl (stereo not given) | inactive | 
2 | CCCCCCCOc1cc2c(cc1/C(C)=C/c1ccc(C(=O)O)cc1)C(C)(C)CCS2(=O)=O | inactive | 
3 | COc1cc(/C=C/c2ccccc2)c(C(=O)O)c(O)c1CC=C(C)C | inactive | 
4 | Cc1cc(NC(=O)c2ccc(Cl)c(Cl)c2)ccc1-c1cc2ccccc2oc1=O | inconclusive: 11.2 µM [cytotoxic, partial curve, poor fit] | 
5 | O=C(Nc1ccc(Oc2ccc(Cl)cc2)c(Cl)c1)c1cc(I)cc(I)c1O | inactive | 
6 | CC1(C)CCC(CN2CCN(c3ccc(C(=O)NS(=O)(=O)c4ccc(NCC5CCOCC5)c([N+](=O)[O-])c4)c(Oc4cnc5[nH]ccc5c4)c3)CC2)=C(c2ccc(Cl)cc2)C1 | active: 3.16 µM | 
7 | CO[C@H]1C[C@@H](O[C@@H]2/C(C)=C/C[C@@H]3C[C@@H](C[C@]4(CC[C@H](C)[C@@H](C5CCCCC5)O4)O3)OC(=O)[C@@H]3C=C(C)/C(=N/O)[C@H]4OC/C(=C\C=C\[C@@H]2C)[C@]43O)O[C@@H](C)[C@H]1O | active: 25.1 µM | 
8 | CC(C)C[C@H](C(=O)O)c1cc(-c2ccc(C(F)(F)F)cc2)cc(-c2ccc(C(F)(F)F)cc2)c1 |  | inconclusive: -47.5%
9 | CN(CC(=O)N(Cc1ccc(C2CCCCC2)cc1)c1ccc(C(=O)O)cc1)S(=O)(=O)c1c(F)c(F)c(F)c(F)c1F | active: 7.94 µM | 
10 | CC(C)c1cc(C(C)C)c(CC(=O)NS(=O)(=O)Oc2c(C(C)C)cccc2C(C)C)c(C(C)C)c1 | inconclusive: 11.2 µM [cytotoxic, partial curve] | 
11 | Cc1ccc(-n2[nH]c(C)c(N=Nc3cccc(-c4cccc(C(=O)O)c4)c3O)c2=O)cc1C | inconclusive: 25.1 µM [cytotoxic, single point] | 
12 | CC(=O)OC12CC(C)C(OC(=O)c3ccccc3)C1/C=C(/C)C(OC(=O)c1ccccc1)CC(=O)C(C)(C)/C=C/C(C)C2=O (stereo not given) | inconclusive: 1.58 µM [cytotoxic, full curve, poor fit] | 
13 | O=C(Nc1ccc(-c2ccc(Cl)c(Cl)c2)cc1)C1=C(O)c2ccccc2S(=O)(=O)N1 | inconclusive: 20 µM [cytotoxic, partial curve] | 
14 | Cc1ccc([C@@H]2CC=C(C(=O)O)[C@H](c3ccc(C(C)(C)C)cc3)N2S(=O)(=O)c2ccc(C)cc2)cc1 | inconclusive: 6.31 µM [cytotoxic, full curve, poor fit] | 
15 | CCCCc1nn2c(=O)cc(COC(=O)c3ccc(NC(=O)c4ccccc4Cl)cc3)nc2s1 | inconclusive: 7.08 µM [cytotoxic, partial curve, poor fit] | 
16 | COc1c(C)c2c(c(O)c1C/C=C(\C)CCC(=O)O)C(=O)OC2 |  | inconclusive: 32.6% [at 31.5 µM]
17 | COc1ccccc1-c1cccc(-c2c(O)c3cc(C#N)c(Cl)cc3[nH]c2=O)c1 | inactive | 
18 | CC1(C)CC[C@]2(C(=O)O)CC[C@]3(C)C(=CCC4[C@@]5(C)CC[C@H](O[C@@H]6O[C@H](C(=O)O)[C@@H](O)[C@H](O)[C@H]6O)C(C)(C)C5CC[C@]43C)C2C1 (stereo not given in full) | inconclusive: 10 µM [cytotoxic, partial curve, poor fit] | 
19 | CC(=O)N1c2ccc(-c3ccc(C(=O)O)cc3)cc2C(Nc2ccc(Cl)cc2)CC1C (stereo not given) |  | inconclusive: -95.9%
20 | Cc1cc(C(C#N)c2ccc(Cl)cc2)c(Cl)cc1NC(=O)c1cc(I)cc(I)c1O (stereo not given) | active: 31.6 µM | 

3 compounds already listed, ordered by formula weight, low to high:
Row | SMILES | Potency | activity change, negative = cytotoxicity
8 | CC(C)C[C@H](C(=O)O)c1cc(-c2ccc(C(F)(F)F)cc2)cc(-c2ccc(C(F)(F)F)cc2)c1 |  | inconclusive: -47.5%
15 | CCCCc1nn2c(=O)cc(COC(=O)c3ccc(NC(=O)c4ccccc4Cl)cc3)nc2s1 | inconclusive: 7.08 µM [cytotoxic, partial curve, poor fit] | 
10 | CC(C)c1cc(C(C)C)c(CC(=O)NS(=O)(=O)Oc2c(C(C)C)cccc2C(C)C)c(C(C)C)c1 | inconclusive: 11.2 µM [cytotoxic, partial curve] | 
